The experiment deals with BDF1 mice, P388 leukemia ip, median survival T/C. The experiment is described as follows: NCI In Vivo Anticancer Drug Screen. Data for tumor model P388 Leukemia (intraperitoneal) in B6D2F1 (BDF1) mice. The conditions noted are these: T/C endpoint: median survival time, higher T/C = longer survival. In outline:
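Each value expresses how treatment altered survival: treated-mouse outcome over vehicle-mouse outcome, both groups bearing the transplanted tumour.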

Setting [1] is: dose: 25.0 mg/kg/injection, schedule: Q01DX005 (ip), vehicle: Klucel (hydroxypropylcellulose) (HPC).
Where [2] appears, read: dose: 25.0 mg/kg/injection, schedule: Q01DX009 (ip), vehicle: Klucel (hydroxypropylcellulose) (HPC).
Setting [3] is: dose: 50.0 mg/kg/injection, schedule: Q01DX001 (ip), vehicle: Klucel (hydroxypropylcellulose) (HPC).
The mark [4] stands for this setting: dose: 50.0 mg/kg/injection, schedule: Q01DX005 (ip), vehicle: Klucel (hydroxypropylcellulose) (HPC).
The mark [5] stands for this setting: dose: 50.0 mg/kg/injection, schedule: Q01DX009 (ip), vehicle: Klucel (hydroxypropylcellulose) (HPC).
The mark [6] stands for this setting: dose: 50.0 mg/kg/injection, schedule: Q04DX002 (ip), vehicle: Klucel (hydroxypropylcellulose) (HPC).
Setting [7] is: dose: 50.0 mg/kg/injection, schedule: Q04DX003 (ip), vehicle: Klucel (hydroxypropylcellulose) (HPC).
Setting [8] is: dose: 100.0 mg/kg/injection, schedule: Q01DX001 (ip), vehicle: Klucel (hydroxypropylcellulose) (HPC).
Setting [9] is: dose: 100.0 mg/kg/injection, schedule: Q01DX005 (ip), vehicle: Klucel (hydroxypropylcellulose) (HPC).
[10] abbreviates: dose: 100.0 mg/kg/injection, schedule: Q04DX003 (ip), vehicle: Klucel (hydroxypropylcellulose) (HPC).
Where [11] appears, read: dose: 200.0 mg/kg/injection, schedule: Q01DX001 (ip), vehicle: Klucel (hydroxypropylcellulose) (HPC).
The mark [12] stands for this setting: dose: 200.0 mg/kg/injection, schedule: Q01DX005 (ip), vehicle: Klucel (hydroxypropylcellulose) (HPC).
Setting [13] is: dose: 200.0 mg/kg/injection, schedule: Q01DX009 (ip), vehicle: Klucel (hydroxypropylcellulose) (HPC).
Setting [14] is: dose: 200.0 mg/kg/injection, schedule: Q04DX003 (ip), vehicle: Klucel (hydroxypropylcellulose) (HPC).
The mark [15] stands for this setting: dose: 400.0 mg/kg/injection, schedule: Q01DX001 (ip), vehicle: Klucel (hydroxypropylcellulose) (HPC).
Where [16] appears, read: dose: 400.0 mg/kg/injection, schedule: Q04DX002 (ip), vehicle: Klucel (hydroxypropylcellulose) (HPC).
Where [17] appears, read: dose: 400.0 mg/kg/injection, schedule: Q04DX003 (ip), vehicle: Klucel (hydroxypropylcellulose) (HPC).

The list shows only some results of the screen, not a fair sample: it gathers tests that were run many times, whatever their T/C, doses with no T/C, and many T/C values between a quarter and a half above the control. Other doses and runs of a compound stand elsewhere. T/C gives the treated animals as a percentage of the vehicle group. Some entries give survivors of the animals treated and no T/C: the source holds a T/C of zero for them, seemingly a mark for toxic or unscored doses. Some survivor counts are full or nearly so, which does not show that the dose was tolerated: survival well below the control is almost never listed, so the zero probably covers shortened survival too. Survivors were counted at the toxicity check, usually on the fifth day, unless a day is given; later deaths do not show. Schedule codes are those of the source, read here as Q, the interval in days (D) or hours (H), X, the number of doses. Some doses were run more than once; the results are listed from low to high. Where survival is the endpoint, this PubChem deposit counts one and a half times the control or more as active, and values a quarter to a half above the control carry no call in these data; other NCI protocols may use other cut-offs. Some T/C values carry the count of animals alive at the toxicity check (mostly the fifth day); without a count, all were alive then. Brackets with × stand for listed records that agree.

As for `CN(C)c1nc(N(C)C)nc(N(C)C)n1`, the T/C under setting [1] is 90, 92, 93, 98 (2×), 99 (3×), 100 (4×), 101 (2×), 102, 103 (3×), 104 (2×), 105, 106, 107, 108 (2×), 109 (2×), 111 (2×), 112, 113, 116, 120, 150 % of control; the T/C under setting [2] was 90, 92, 94 (3×), 95 (2×), 97 (3×), 100 (2×), 101 (2×), 103 (2×), 104, 106 (2×), 107 (2×), 109, 109 [5 of 6 alive], 110, 111 (2×), 113 (2×), 115, 125, 128 % of control; the T/C under setting [3] is 87, 88, 93, 94, 100 (4×), 102 (2×), 103, 104 (3×), 105, 105 [2 of 3 alive], 106, 107 (4×), 109, 110, 114, 115, 117, 128 % of control; the T/C under setting [4] is 90, 94, 97, 99, 100 (2×), 102 (2×), 104, 105, 106 (2×), 107 (5×), 108 (4×), 109, 110, 111, 112, 114, 115, 117 (2×), 119 (2×), 120, 123, 131 % of control; the T/C under setting [5] was 87, 88, 90 (2×), 92, 94 (3×), 95, 97 (2×), 100, 101, 103 (4×), 104 (2×), 105, 106, 108, 109, 110 (2×), 111 (3×), 112, 113, 118, 123, 129, 150 % of control; the T/C under setting [6] is 86, 88, 89 (2×), 91, 94, 95, 99 (2×), 100 (3×), 101, 103 (2×), 104 (2×), 106 (4×), 107 (3×), 109 (2×), 111, 113, 114, 117, 121 [5 of 6 alive], 122 % of control. The T/C is, setting by setting: under setting [7], 87, 94, 97, 98, 100 (5×), 101 (2×), 102 (3×), 105 (6×), 106, 107 (2×), 108 (3×), 110 (2×), 111 (2×), 115, 116 % of control (2×); under setting [8], 87, 91, 92, 94, 95, 96 (2×), 98, 99 (2×), 100, 101, 102, 103, 104, 105 (2×), 106 (2×), 106 [5 of 6 alive], 109, 110, 111, 113, 116, 126 % of control; under setting [9], 90, 93, 99, 100, 101, 103 [5 of 6 alive], 105 (2×), 107 (3×), 107 [2 of 3 alive], 108, 111 (2×), 113, 115 (3×), 117 (2×), 117 [5 of 6 alive], 119, 124, 126, 127, 128 (2×), 131, 133, 137, 138, 144 % of control (2×); (dose: 100.0 mg/kg/injection, schedule: Q01DX009 (ip), vehicle: Klucel (hydroxypropylcellulose) (HPC)) 87, 90, 93, 97, 97 [2 of 3 alive], 101, 102 (2×), 103 (2×), 104, 106 (2×), 107 (2×), 108, 109, 110, 111 (3×), 113, 113 [5 of 6 alive], 115, 119, 120, 122 (2×), 125, 126, 127, 130 (2×), 131 (2×), 143 % of control; (dose: 100.0 mg/kg/injection, schedule: Q04DX002 (ip), vehicle: Klucel (hydroxypropylcellulose) (HPC)) 88, 90, 92 (2×), 94, 97, 98, 100, 101, 102, 103 (4×), 104 (2×), 105 (3×), 106 (3×), 109 (5×), 111 (2×), 117 (2×), 120 (2×), 125 % of control; under setting [10], 86, 87 (2×), 93, 96 (2×), 99, 102 (2×), 103, 104 (2×), 105 (4×), 106, 107 (4×), 109 (2×), 110, 111 (3×), 112 (2×), 115, 116, 117, 123, 133, 151 % of control. Also, the T/C under setting [11] is 90, 94 (2×), 95, 99, 100, 104 (2×), 105 (3×), 106 (4×), 107 (2×), 108, 111 (2×), 113, 117, 118, 121 (2×), 123, 130 % of control; the T/C under setting [12] is 93, 94 [5 of 6 alive], 96, 100 [5 of 6 alive], 103, 106, 116, 121, 123, 124, 125, 126, 133, 139 % of control; the T/C under setting [13] was 87 [5 of 6 alive], 92 (2×), 93, 97, 100, 108 (2×), 109 (2×), 112, 113, 114, 121, 128 % of control; the T/C (dose: 200.0 mg/kg/injection, schedule: Q04DX002 (ip), vehicle: Klucel (hydroxypropylcellulose) (HPC)) is 87, 91, 95, 100, 103 (3×), 104, 105, 108 (2×), 109, 111 (4×), 112 (4×), 115 (2×), 117, 118 (2×), 120, 121, 123, 128, 132, 134 (3×), 137 % of control; the T/C under setting [14] is 87, 91, 94, 96, 100, 102, 104 (2×), 105, 109, 110 (2×), 112 (2×), 113, 114 (3×), 114 [2 of 3 alive], 115, 117 (2×), 118, 119, 121 (2×), 122, 123 (2×), 125 (2×), 126, 127, 134, 140 % of control; the T/C under setting [15] is 91, 93, 95, 96, 100 [5 of 6 alive], 104, 105, 106 (2×), 108, 109, 110 (2×), 111, 113, 114, 116 [2 of 3 alive], 126 [5 of 6 alive], 129 % of control [2 of 3 alive]. In addition, the T/C is 90 [5 of 6 alive], 97 [5 of 6 alive], 100, 102 (2×), 105, 109, 112, 141, 143 % of control (2×) under setting [16] and 88, 94, 100 [5 of 6 alive], 102, 104, 107, 108, 127, 135, 220 % of control under setting [17]. The survivor count under setting [1] is listed as 2 of 3; the survivor count under setting [2] is given as 3 of 3; the survivor count under setting [3] is 5 of 6; the survivor count under setting [4] is recorded as 3 of 3; the survivor count under setting [5] is 3 of 3 and 6 of 6; the survivor count under setting [6] is reported as 3 of 3. Besides, the survivor count runs as follows: under setting [7], 2 of 3 and 3 of 3; under setting [8], 6 of 6; under setting [9], 1 of 3; under setting [10], 2 of 3; (dose: 160.0 mg/kg/injection, schedule: Q01DX009 (ip), vehicle: saline with Tween-80) 10 of 10; under setting [11], 2 of 3. Also, the survivor count is, setting by setting: under setting [12], 3 of 6, 2 of 3, 5 of 6, 3 of 3, 6 of 6; under setting [13], 1 of 3, 3 of 6, 2 of 3, 4 of 6, 5 of 6, 3 of 3, 6 of 6; under setting [14], 3 of 3; (dose: 300.0 mg/kg/injection, schedule: Q01DX009 (ip), vehicle: Klucel (hydroxypropylcellulose) (HPC)) 6 of 6; (dose: 300.0 mg/kg/injection, schedule: Q01DX009 (ip), vehicle: saline with Tween-80) 9 of 10; under setting [15], 0 of 3, 1 of 3, 3 of 6, 5 of 6, 6 of 6. Besides, the survivor count is on record as 5 of 6 (dose: 400.0 mg/kg/injection, schedule: Q01DX009 (ip), vehicle: Klucel (hydroxypropylcellulose) (HPC)); 0 of 3, 1 of 6, 1 of 3, 2 of 6, 3 of 6, 2 of 3, 4 of 6, 3 of 3, 6 of 6 under setting [16]; 1 of 6, 1 of 3, 2 of 3, 4 of 6, 5 of 6, 3 of 3, 6 of 6 under setting [17]; 4 of 10 (dose: 450.0 mg/kg/injection, schedule: Q01DX009 (ip), vehicle: saline with Tween-80).

As to `Nc1cc(S(N)(=O)=O)ccc1SSc1ccc(S(N)(=O)=O)cc1N`, the T/C (dose: 400.0 mg/kg/injection, schedule: Q01DX009 (ip), vehicle: saline) was 136 % of control.

`CC[N-]c1nnnn1CC.[Au+].c1ccc([PH+](c2ccccc2)c2ccccc2)cc1`: the survivor count (dose: 50.0 mg/kg/injection, schedule: Q01DX001 (ip), vehicle: saline with Tween-80) is given as 0 of 6.

As for `CC#CC(=O)SCCNC(=O)CC`, the survivor count is, setting by setting: (dose: 100.0 mg/kg/injection, schedule: Q04DX003 (ip), vehicle: saline with Tween-80) 5 of 6; (dose: 200.0 mg/kg/injection, schedule: Q04DX003 (ip), vehicle: saline with Tween-80) 1 of 6.

Consider `CC(C)(C)CC(C)(C)c1c(O)cc(O)cc1Cl`, for which the survivor count is, setting by setting: (dose: 50.0 mg/kg/injection, schedule: Q01DX009 (ip), vehicle: gum acacia) 6 of 6; (dose: 100.0 mg/kg/injection, schedule: Q01DX009 (ip), vehicle: gum acacia) 0 of 6; (dose: 200.0 mg/kg/injection, schedule: Q01DX009 (ip), vehicle: gum acacia) 0 of 6.

Consider `O=C1CSC(C23CC4CC(CC(C4)C2)C3)N1c1nccs1` (stereo not given), for which the survivor count (dose: 200.0 mg/kg/injection, schedule: Q01DX009 (ip), vehicle: saline with Tween-80) is given as 6 of 6.

Source of the values: PubChem BioAssay AID328 (DTP/NCI, 2004).
